These are yes or no findings as the source states them, for the method shown. In cells and extracts the contact can be indirect. These calls come from enrichment with a bait or labelling near it, and not all partners need be listed. Tags and fused reporters may be left off the sequences shown.
T1: FLAG-tagged Engrailed-1 (EN1) (UniProt P09065)
T1 sequence: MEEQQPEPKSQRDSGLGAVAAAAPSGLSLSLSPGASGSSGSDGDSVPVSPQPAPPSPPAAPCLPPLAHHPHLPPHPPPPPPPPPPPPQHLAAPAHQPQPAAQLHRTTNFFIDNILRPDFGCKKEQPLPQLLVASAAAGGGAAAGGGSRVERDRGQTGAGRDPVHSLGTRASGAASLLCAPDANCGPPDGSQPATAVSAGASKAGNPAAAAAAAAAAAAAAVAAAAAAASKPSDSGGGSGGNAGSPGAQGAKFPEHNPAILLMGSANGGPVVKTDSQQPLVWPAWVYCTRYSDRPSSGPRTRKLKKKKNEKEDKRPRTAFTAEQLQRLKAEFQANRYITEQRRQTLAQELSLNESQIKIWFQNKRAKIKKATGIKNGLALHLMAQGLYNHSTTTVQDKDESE

The chains behind the UniProt entries cited, without tags or fusion partners.
UniProt Q8BKJ9: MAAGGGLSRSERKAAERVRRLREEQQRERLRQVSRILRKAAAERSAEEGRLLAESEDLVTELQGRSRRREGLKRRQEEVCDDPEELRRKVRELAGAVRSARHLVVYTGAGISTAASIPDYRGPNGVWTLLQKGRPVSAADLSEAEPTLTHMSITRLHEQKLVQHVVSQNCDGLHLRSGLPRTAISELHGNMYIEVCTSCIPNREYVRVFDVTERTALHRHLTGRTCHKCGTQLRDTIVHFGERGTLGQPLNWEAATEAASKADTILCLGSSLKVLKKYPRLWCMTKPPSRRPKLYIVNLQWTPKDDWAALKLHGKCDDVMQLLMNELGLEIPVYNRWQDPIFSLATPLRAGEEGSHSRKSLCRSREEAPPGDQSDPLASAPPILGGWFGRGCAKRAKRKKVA
UniProt Q61188: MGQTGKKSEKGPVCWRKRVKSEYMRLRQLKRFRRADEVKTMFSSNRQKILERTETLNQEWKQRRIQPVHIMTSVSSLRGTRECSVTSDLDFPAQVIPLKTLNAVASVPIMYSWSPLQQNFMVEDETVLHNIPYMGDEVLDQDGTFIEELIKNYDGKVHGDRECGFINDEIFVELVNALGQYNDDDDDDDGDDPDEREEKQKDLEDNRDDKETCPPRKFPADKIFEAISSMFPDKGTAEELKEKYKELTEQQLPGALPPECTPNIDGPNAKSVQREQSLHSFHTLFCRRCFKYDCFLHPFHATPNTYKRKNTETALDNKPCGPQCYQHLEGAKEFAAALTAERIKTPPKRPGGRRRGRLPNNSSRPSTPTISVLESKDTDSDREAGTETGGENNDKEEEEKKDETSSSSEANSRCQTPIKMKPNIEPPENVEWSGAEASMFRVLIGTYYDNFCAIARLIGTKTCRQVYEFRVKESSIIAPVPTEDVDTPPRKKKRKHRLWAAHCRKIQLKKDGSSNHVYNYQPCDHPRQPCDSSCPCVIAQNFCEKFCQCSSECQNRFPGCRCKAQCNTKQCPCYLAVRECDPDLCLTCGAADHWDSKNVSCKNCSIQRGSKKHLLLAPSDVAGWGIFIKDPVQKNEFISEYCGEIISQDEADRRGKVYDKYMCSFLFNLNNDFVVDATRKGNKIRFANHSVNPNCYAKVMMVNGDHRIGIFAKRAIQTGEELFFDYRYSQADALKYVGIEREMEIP


Molecular target: T1, FLAG-tagged Engrailed-1 (EN1)
Assay: affinity purification with mass spectrometry; nuclear complex co-immunoprecipitation of FLAG-tagged EN1 (Active Motif kit, high stringency buffer), Protein A/G magnetic beads, 5 µg antibody per reaction, LC-MS/MS; mT3-2D and mT19-2D cells overexpressing EN1; hits by log2 fold change >2 against the control, two independent biological samples

Row | binding | Molecule
1 | binds | SIRT7 (from UniProt Q8BKJ9 1-402)
2 | binds | ZFP819 (mouse (endogenous in mT3-2D and mT19-2D))
3 | binds | EZH2 (from UniProt Q61188 1-746)
4 | binds | MCPH1 (protein, UniProt Q7TT79 1-822) MEASGGVGGAFLKDVVAYVEVWSSKGTENYSRTFAKQLEDMGATVSKTLNKQVTHVIFKDGYQSTWDKAQKTGAKLVSVLWVEKCRMAGALVDESLFPAVNTDEHLPNLSRKKHKCMQPKDFILKTPENDKRLQKKFEKMAEELQRQKAALDDDVPVLLFESPRSLVYSSPVNVMKRRLQDMKEKRENLSPTSSQMLEQSQQNPCVSLFETSLNISHQPLSSDESFASGSHSSFGDSCGDQERKLGRSANEMTTVTCPSSPVLRASSFYGSASPNHLRQPRPQKAPDSPSKESINCQKDATGAVADSERKQAAGVSQGVPDEKLCLSPTMSIIEEHQVRLGPKNSSAKRKRAADLGSSPKGKLKKRYKRKSALAIQLFKSDQSPPSTIRLIPGTPDVEASSYEDYFSPDNLKERNSERLPPEAQQLASPSLFHCRGLSKWERRNMLEMCDFTCIGEKHRSISSISDLISKSASSLEKPVKEEVNTASTCLLLVETSANDSPGLCSQPGPQLRDDTGPEGSSHPDTLSSSAHHITPLKGNSTETRDPGDGKGSPKEGSTPPASASPEDEVHICNLSLGEDCNVEKSVEEKENIATGYSESVKNGPGRPDPSDSSCTGLVRPQQKPKKSEKEEKPTRTLVMTSMPSEKQTLIIQVVSTLKGFSFAPEVCETTTHVLVGKSARTLNVLMGIARGCWILSYEWVLLSLELGHWISEEPFELSETFPAAPICRLERHLSTQQYQGTLFANQPKMFIAPASSPPRAKLCELVLLCGGQVSPAPQLASLIIGPYKGKKKARIQYLSEKWVLDSITQHKICDFNNYQLLQ
5 | binds | MED9 (protein, UniProt Q8VCS6 1-142) MASSGVAGGRQAEDTLQPPPELLPESKPPPPPQPLPVAALPPPAAPRPQSPAGAKEENYSFLPLVHNVIKCMDKDSPDLHQDLNALKTKFQELRKLIGTMPGIHVSPEQQQQQLHSLREQVRTKNELLQKYKSLCMFEIPKD
6 | binds | ARID4B (protein, UniProt A2CG63 1-1314) MKALDEPPYLTVGTDVSAKYRGAFCEAKIKTAKRLVKVKVTFRHDSSTVEVQDDHIKGPLKVGAIVEVKNLDGAYQEAVINKLTDASWYTVVFDDGDEKTLRRSSLCLKGERHFAESETLDQLPLTNPEHFGTPVIGKKTNRGRRSNHIPEEESSSSSSDDDEEERKQTDELLGKVVCVDYVSLEKKKAMWFPALVVCPDCSDEIAVKKDNILVRSFKDGKFTSVPRKDVHEITSDTVPKPDAVLKQAFDQALEFHKSRAIPANWKTELKEDSSSSEAEEEEEEEDDEKEKEDNSSEEEEEIEPFPEERENFLQQLYKFMEDRGTPINKRPVLGYRNLNLFKLFRLVHKLGGFDNIESGAVWKQVYQDLGIPVLNSAAGYNVKCAYKKYLYGFEEYCRSANIDFQMALPEKVLNKPCKDCENKEVKVKEESETEIKEVNVEDSKNVMPKEETPAEDESERKENIKPSLGSKKSLLECIPAQSDEEKEAHITKLEENENLEDKDGGRARTEEAFSTEVDGEEEQARSGDETNKEEDEDDEEIEEEEEEDEEEDEDEDDDDNNEEEEFECYPPGMKVQVRYGRGKNQKMYEASIKDSDVEGGEALYLVHYCGWNVRYDEWIKADKIVRPADKNVPKIKHRKKIKNKLDKEKDRDEKYSPKNCKLRRLSKSPFQSNPSPEMVSKLDLADAKNSDTAHIKSIEITSILNGLQASESSAEDSEQEDERCTQDVDNIGKDESKVEHSTHSRNELISKEEQSSPSLLEENKVHTDLVIAKTVSKSPERLRKDMEAISEDTDFEEEDEITKKRKDVKKDTTDKALKPQTKRGKRRYCSADECLQTGSPGKKEDRTKSKEPLCTENSSNSSSDEDEEEKSKAKMTPTKKYNGLEEKRKSLRTTSFYSGFSEVAEKRIKLLNNSDERLQNNRAKDRKDVWSSIQGQWPKKTLKELFSDSDTEAAASPPHPAPDEGAVEESLQTVAEEESCSPIMELEKPLPASVDNKPIEEKPLEVSDRKTEFPSSGSNSVLNTPPTTPESPSSVTITEASQQQSSVTVSVPLPPNQEEVRSIKSETDSTIEVDSVVGELQDLQSEGNSSPAGFDASVSSSSSNQPEPDNPEKACTGQKRVKDTQGVGSSSKKQKRSHKATVVNNKKKGKGTNSSDSEELSAGESVTKTQTIKSVPTGMKTHNSKSPARVQSPGKGGRNGDKDPDLKEPSNRLPKVYKWSFQTSDLENMTSAERISILQEKLQEIRKHYLSLKSEVASIDRRRKRLKKKERESAATSSSSSSPSSSSITAAVMLTLAEPSMSSASQNGMSVECR
